Reference: PubChem BioAssay AID1259308 (NCATS, 2017)
Aim: 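Knock-downs that increase output of a recombinant reporter protein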 (primary screen). Cells: human HEK293 embryonic kidney cells stably expressing firefly luciferase (HEK-CMV-Luc2-Hygro). Reagents: single siRNA against human genes, 0.8 pmol siRNA per well. Duration: 72 h. Measured: 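Luciferase light (ONE-Glo) measured on one replicate plate set and viability (CellTiter-Glo) on the other, scaled to a negative control siRNA, with robust z-scores and luciferase per cell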. Reading the numbers: total luciferase, z-score and total luciferase, % of control: higher = more reporter protein produced; luciferase per cell, z-score: higher = more reporter output per viable cell; viable cells, % of control: higher = more viable cells. Active means: 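Active when the median/MAD z-score for overall luciferase is greater than 3; a gene was taken forward for validation with new siRNAs if at least two of its three siRNAs passed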. Meaning of the calls: active = raised luciferase; inactive = no rise.
Here is an unselected part of about 59,000 reagents. Of all reagents, about 1,510 (2.6%) got an active call. 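Calls use total luciferase alone and ignore viability, so some active siRNAs may act by altering cell number.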 Reagent sequences are not shown.

| Gene | PubChem SID | total luciferase, z-score | total luciferase, % of control | luciferase per cell, z-score | viable cells, % of control | Call |
| --- | --- | --- | --- | --- | --- | --- |
| ZC3H8 (zinc finger CCCH-type containing 8) | SID160752359 | -0.405 | 73.8 | -0.388 | 91.4 | inactive |
| ZC3H8 (zinc finger CCCH-type containing 8) | SID160752360 | 0.875 | 99.3 | 0.765 | 90.7 | inactive |
| ZC3H8 (zinc finger CCCH-type containing 8) | SID160752361 | 0.543 | 92.7 | -0.019 | 104 | inactive |
| RAB9A (RAB9A, member RAS oncogene family) | SID160722045 | 0.33 | 88.4 | 0.358 | 89.9 | inactive |
| RAB9A (RAB9A, member RAS oncogene family) | SID160722046 | -0.865 | 64.7 | -1.47 | 107 | inactive |
| RAB9A (RAB9A, member RAS oncogene family) | SID160722047 | 0.653 | 94.9 | 0.356 | 96.5 | inactive |
| DZIP1 (DAZ interacting zinc finger protein 1) | SID160732375 | -0.726 | 67.4 | -0.634 | 89.1 | inactive |
| DZIP1 (DAZ interacting zinc finger protein 1) | SID160732386 | -0.668 | 68.6 | 0.079 | 75.1 | inactive |
| DZIP1 (DAZ interacting zinc finger protein 1) | SID160732396 | 0.0194 | 82.3 | 0.277 | 85.5 | inactive |
| RB1CC1 (RB1 inducible coiled-coil 1) | SID160723176 | -0.12 | 79.5 | 0.686 | 74.2 | inactive |
| RB1CC1 (RB1 inducible coiled-coil 1) | SID160723177 | -0.686 | 68.2 | -0.665 | 90.8 | inactive |
| RB1CC1 (RB1 inducible coiled-coil 1) | SID160723178 | 0.22 | 86.3 | 0.156 | 92.5 | inactive |
| CEP41 (centrosomal protein 41) | SID160754664 | 0.935 | 100 | 1.4 | 77.6 | inactive |
| CEP41 (centrosomal protein 41) | SID160754665 | 0.384 | 89.5 | 0.107 | 97.3 | inactive |
| CEP41 (centrosomal protein 41) | SID160754666 | 0.484 | 91.5 | -0.276 | 110 | inactive |
| HIRA (histone cell cycle regulator) | SID160718468 | -0.227 | 77.4 | -0.475 | 98 | inactive |
| HIRA (histone cell cycle regulator) | SID160718469 | 0.945 | 101 | 1.11 | 84 | inactive |
| HIRA (histone cell cycle regulator) | SID160718470 | -0.725 | 67.5 | 0.191 | 71.7 | inactive |
| KIF5B (kinesin family member 5B) | SID160731169 | 0.087 | 83.6 | 0.0651 | 91.8 | inactive |
| KIF5B (kinesin family member 5B) | SID160775719 | 0.116 | 84.2 | 0.369 | 85.4 | inactive |
| KIF5B (kinesin family member 5B) | SID160775730 | -0.344 | 75 | -0.0162 | 84.2 | inactive |
| MYL12BP3 (MYL12B pseudogene 3) | SID160768149 | 4.23 | 166 | 2.67 | 91.7 | active |
| MYL12BP3 (MYL12B pseudogene 3) | SID160768151 | 2.47 | 131 | 1.49 | 99 | inactive |
| MYL12BP3 (MYL12B pseudogene 3) | SID160768152 | -0.109 | 79.7 | -0.00661 | 89.2 | inactive |

In a second layout: entries from further up.
{"Gene": "RAB9A (RAB9A, member RAS oncogene family)", "PubChem SID": "SID160722046", "total luciferase, z-score": -0.865, "total luciferase, % of control": 64.7, "luciferase per cell, z-score": -1.47, "viable cells, % of control": 107, "Call": "inactive"}
{"Gene": "RAB9A (RAB9A, member RAS oncogene family)", "PubChem SID": "SID160722047", "total luciferase, z-score": 0.653, "total luciferase, % of control": 94.9, "luciferase per cell, z-score": 0.356, "viable cells, % of control": 96.5, "Call": "inactive"}
